Test results reported in US7141393 (KABUSHIKI KAISHA HAYASHIBARA SEIBUTSU KAGAKU KENKYUJO, dated 2006).
These are yes or no findings as the source states them, for the method shown. Some results given as binding are weak or reduced against the parent protein; the word gives no strength.

Experiments:
[1] = biological target: T1, IL-18R protein (aqueous solution obtained from L428 cells by the method in Example 1) (human) (UniProt Q13478); experiment: inhibition of 125I-labelled IL-18 binding to IL-18R protein in solution, PEG precipitation
T1 sequence (looked up): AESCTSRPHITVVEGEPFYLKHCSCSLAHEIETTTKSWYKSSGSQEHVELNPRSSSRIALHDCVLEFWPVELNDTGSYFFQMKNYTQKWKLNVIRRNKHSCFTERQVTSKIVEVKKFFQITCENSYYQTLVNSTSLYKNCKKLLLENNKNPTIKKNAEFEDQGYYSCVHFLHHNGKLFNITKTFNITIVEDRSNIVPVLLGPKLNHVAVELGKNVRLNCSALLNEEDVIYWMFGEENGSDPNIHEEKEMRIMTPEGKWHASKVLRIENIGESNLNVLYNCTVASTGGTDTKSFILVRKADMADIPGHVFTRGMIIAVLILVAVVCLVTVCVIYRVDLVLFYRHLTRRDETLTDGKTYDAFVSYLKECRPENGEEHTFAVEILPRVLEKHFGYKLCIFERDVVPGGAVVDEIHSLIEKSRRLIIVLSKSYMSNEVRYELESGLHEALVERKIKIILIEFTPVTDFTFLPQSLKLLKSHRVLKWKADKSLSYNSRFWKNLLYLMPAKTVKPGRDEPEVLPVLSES

[2] = biological target: T1, IL-18R protein (aqueous solution obtained from L428 cells by the method in Example 1) (human); experiment: inhibition of 125I-labelled IL-18 binding to IL-18R protein in solution (FIG. 1 legend)
[3] = biological target: T1, IL-18R protein (aqueous solution obtained from L428 cells by the method in Example 1) (human); experiment: Western blot, non-reducing SDS-PAGE (FIG. 2 legend)
[4] = biological target: T1, IL-18R protein (aqueous solution obtained from L428 cells by the method in Example 1) (human); experiment: immunoaffinity chromatography, antibody immobilised on Sepharose 4B, elution at pH 10.8
[5] = biological target: T1, IL-18R protein (aqueous solution obtained from L428 cells by the method in Example 1) (human); experiment: Western blot, non-reducing SDS-PAGE, antibody at 10 ug/ml

Measured: binding

B1: monoclonal antibody MAb #117-10C (antibody, V domains shown)
VH: EVQLQQSGAELVKPGASVKLSCTTSGFNIKDIYIYWVKQRPEQGLEWVGRIDPANGDTKYGPNFQDKATITADTSSNTAYLQLRSLTSEDTAVYYCARRGNYGAGFGYWGQGTLVTVSA
VL: DIQMTQSPASLSASVGETVTITCRASGNIHNYLAWYQQRQGKSPQILVYNAKTLADGVSSRFSGSGSGTQYSLNINSLQPEDFGTYFCQHFWSTPYTFGGGTKLEIKR
notes: Mouse hybridoma antibody purified from ascites
binds: [1] | [2] | [3] | [4] | [5]
